The supplement of paper PMC9233669
This sample is rich in variants without activity.

Tests used:
[1] = tested on: biotinyl-Trp-oxazolone; assay: self-aminoacylation, catalytic enhancement (BWO) (fold over background); higher = more active; k-Seq, kA / k0A0; sequences stand for … in GGGAAUGGAUCCACAUCUACGAAUUC…UUCACUGCAGACUUGACGAAGCUG
In short: (§1)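 Catalytic enhancement equals the median kA over the uncatalyzed rate, the latter read from the low-activity peak of a bimodal Gaussian fit. Values of kA came from fitting each sequence's fraction reacted to a pseudo-first-order model, with 1000 bootstraps. Reacted RNA was captured with streptavidin and quantified by triplicate qPCR and Illumina sequencing after 90 minutes at room temperature with 2–1250 μM biotinyl-aminoacyl-oxazolone and 0.43 μM mutagenized RNA pools bearing a 21-nt variable region.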

[2] = tested on: biotinyl-Met-oxazolone; assay: self-aminoacylation, catalytic enhancement (BMO) (fold over background); higher = more active; k-Seq, kA / k0A0; sequences stand for … in GGGAAUGGAUCCACAUCUACGAAUUC…UUCACUGCAGACUUGACGAAGCUG
In short: as §1

[3] = tested on: biotinyl-Val-oxazolone; assay: self-aminoacylation, catalytic enhancement (BVO) (fold over background); higher = more active; k-Seq, kA / k0A0; sequences stand for … in GGGAAUGGAUCCACAUCUACGAAUUC…UUCACUGCAGACUUGACGAAGCUG
In short: as §1

[4] = tested on: biotinyl-Leu-oxazolone; assay: self-aminoacylation, catalytic enhancement (BLO) (fold over background); higher = more active; k-Seq, kA / k0A0; sequences stand for … in GGGAAUGGAUCCACAUCUACGAAUUC…UUCACUGCAGACUUGACGAAGCUG
In short: as §1

[5] = tested on: biotinyl-Ile-oxazolone; assay: self-aminoacylation, catalytic enhancement (BIO) (fold over background); higher = more active; k-Seq, kA / k0A0; sequences stand for … in GGGAAUGGAUCCACAUCUACGAAUUC…UUCACUGCAGACUUGACGAAGCUG
In short: as §1

Sequence	self-aminoacylation [1]	self-aminoacylation [2]	self-aminoacylation [3]	self-aminoacylation [4]	self-aminoacylation [5]
ACGUUUGCUAAUAGUCGCGAG [Fam3.1 aminoacylation ribozyme variant]	1.48	1.98			
ACGUUUGCUAAUAGUGGCAAG [Fam3.1 aminoacylation ribozyme variant]	0.59	0.75	0.741	0.804	0.853
ACUACCCUGGUCAUCGACUGA [Fam2.1 aminoacylation ribozyme variant]	0.51	1.09	0.854	0.769	0.918
ACUACCCUGGUCGUCGAGUGA [Fam2.1 aminoacylation ribozyme variant]	0.701	1.49	1.19	1.95	1.17
ACUCACCUAGGUCAUCGUGUG [Fam2.2 aminoacylation ribozyme variant]	0.891	0.925	1.09	1.34	1.21
AGUCACCUAGGUCAUCGCGUG [Fam2.2 aminoacylation ribozyme variant]	14.3	14.4	9.1	18.3	8.4
AUAACCCUGGUAAUCGAGUGA [Fam2.1 aminoacylation ribozyme variant]	9.38	7.93	3.58	8.57	3.97
AUACACCUAGGUCGUCGGGUG [Fam2.2 aminoacylation ribozyme variant]	1.83	1.92	1.69		1.71
AUCACCCUGGUCAUCGAGUGA [Fam2.1 aminoacylation ribozyme variant]	28.4	27.8	11.3	27	10.6
AUCACCGUGGUCAUCGAGUGA [Fam2.1 aminoacylation ribozyme variant]	7.75	7.05	4.01	6.15	3.99
AUUACCCUGGUCCUCGAGUGG [Fam2.1 aminoacylation ribozyme variant]	1.63		1.23	1.42	1.07
AUUCACCUAGAUCAUCGGGUA [Fam2.2 aminoacylation ribozyme variant]	1.58		1.84	1.46	1.58
AUUCACCUAGGACAUCGGGGG [Fam2.2 aminoacylation ribozyme variant]	1.06				1.74
AUUCACCUAGGUCAACGGGCG [Fam2.2 aminoacylation ribozyme variant]	1.73		1.97		
AUUCACCUAGGUCUUCGGGGG [Fam2.2 aminoacylation ribozyme variant]	1.45				
AUUCACCUCGGUCAUCGGGUC [Fam2.2 aminoacylation ribozyme variant]	1.84	1.64			1.62
AUUCACCUGGGUCAUAGGGUG [Fam2.2 aminoacylation ribozyme variant]	1.48	1.92	1.5		1.53

Sequence	self-aminoacylation [1]	self-aminoacylation [2]	self-aminoacylation [3]	self-aminoacylation [4]	self-aminoacylation [5]
AUUCACCUGGGUCAUCGGCUG [Fam2.2 aminoacylation ribozyme variant]	0.753	1.95			
CCACACUUCAAGCAGUCGGCC [Fam1B.1 aminoacylation ribozyme variant]	1.97				1.76
CCACACUUCAAGCAUUCGGUU [Fam1B.1 aminoacylation ribozyme variant]	1.15				
CUACCUCAAACAAUCGGGCUG [Fam1A.1 aminoacylation ribozyme variant]	1.74		1.93		1.29
CUACUUCAAACAAUCGGCCGG [Fam1A.1 aminoacylation ribozyme variant]	1.8	1.45	1.53	1.02	
CUCCUUCAAACAAUCGGUCUA [Fam1A.1 aminoacylation ribozyme variant]		0.924	1.05	1.02	0.919
CUCCUUCAAAGAAUCGGUCUG [Fam1A.1 aminoacylation ribozyme variant]		0.925	1.16	1.22	0.926
CUGCCUCAAACAAUCGGUCUG [Fam1A.1 aminoacylation ribozyme variant]		1.29	1.18	1.83	0.97
CUGCUACAAACAAUCGGUCUG [Fam1A.1 aminoacylation ribozyme variant]		0.841	0.995	0.756	0.891
CUUACCGUGGUCAUCGAGUGA [Fam2.1 aminoacylation ribozyme variant]		3.29	2.68	2.59	1.83
CUUCGCCUAGGUCAUCGGGUG [Fam2.2 aminoacylation ribozyme variant]		3.41	4.54	4.47	3.75
CUUCUUCAAACAAUCGGUCCG [Fam1A.1 aminoacylation ribozyme variant]		0.777	0.648	0.627	0.591
CUUCUUCAAACAAUCGGUGUG [Fam1A.1 aminoacylation ribozyme variant]		1.1	1.01	1.45	1.13
GUACUUCAAACCAUCGGUCUG [Fam1A.1 aminoacylation ribozyme variant]		1.13	1.18	0.918	1.22
UUACUUCAAACAAUGGGUCUG [Fam1A.1 aminoacylation ribozyme variant]		1.03	1.05	1.06	1.05
UUACUUCAAAUAAUCGGUCUG [Fam1A.1 aminoacylation ribozyme variant]		1.19	1.1	1.22	1.3
